# Experimental data published in the supplement of paper PMC11732987, “Enantioselective OTUD7B fragment discovery through chemoproteomics screening and high-throughput optimisation” (Communications Chemistry, 2025).
# Sequences of proteins named here, by UniProt entry; tags and fusion partners are left off. A change or cut given only in a name is not applied to a line headed by its entry.
# UniProt Q8WYQ5: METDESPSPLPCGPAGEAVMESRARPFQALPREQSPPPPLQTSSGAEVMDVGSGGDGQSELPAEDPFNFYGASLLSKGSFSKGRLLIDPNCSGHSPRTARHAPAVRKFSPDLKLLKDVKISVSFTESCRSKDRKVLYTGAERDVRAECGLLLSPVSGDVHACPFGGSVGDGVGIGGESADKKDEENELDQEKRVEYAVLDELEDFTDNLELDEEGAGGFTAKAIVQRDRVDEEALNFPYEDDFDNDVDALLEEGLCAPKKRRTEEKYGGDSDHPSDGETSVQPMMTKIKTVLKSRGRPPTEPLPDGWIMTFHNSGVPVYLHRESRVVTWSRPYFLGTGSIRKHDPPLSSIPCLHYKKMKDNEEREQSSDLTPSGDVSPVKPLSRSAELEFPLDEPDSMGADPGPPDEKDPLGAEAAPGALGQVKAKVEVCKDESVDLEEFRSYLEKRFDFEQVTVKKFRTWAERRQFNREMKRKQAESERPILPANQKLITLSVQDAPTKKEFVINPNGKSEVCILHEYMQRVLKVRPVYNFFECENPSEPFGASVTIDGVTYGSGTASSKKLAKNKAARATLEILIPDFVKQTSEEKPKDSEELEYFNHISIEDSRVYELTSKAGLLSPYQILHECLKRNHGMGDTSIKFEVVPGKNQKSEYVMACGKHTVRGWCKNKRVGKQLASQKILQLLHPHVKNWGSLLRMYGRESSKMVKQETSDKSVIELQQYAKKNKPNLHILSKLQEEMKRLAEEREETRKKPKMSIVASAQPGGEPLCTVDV
# UniProt Q6IQ26: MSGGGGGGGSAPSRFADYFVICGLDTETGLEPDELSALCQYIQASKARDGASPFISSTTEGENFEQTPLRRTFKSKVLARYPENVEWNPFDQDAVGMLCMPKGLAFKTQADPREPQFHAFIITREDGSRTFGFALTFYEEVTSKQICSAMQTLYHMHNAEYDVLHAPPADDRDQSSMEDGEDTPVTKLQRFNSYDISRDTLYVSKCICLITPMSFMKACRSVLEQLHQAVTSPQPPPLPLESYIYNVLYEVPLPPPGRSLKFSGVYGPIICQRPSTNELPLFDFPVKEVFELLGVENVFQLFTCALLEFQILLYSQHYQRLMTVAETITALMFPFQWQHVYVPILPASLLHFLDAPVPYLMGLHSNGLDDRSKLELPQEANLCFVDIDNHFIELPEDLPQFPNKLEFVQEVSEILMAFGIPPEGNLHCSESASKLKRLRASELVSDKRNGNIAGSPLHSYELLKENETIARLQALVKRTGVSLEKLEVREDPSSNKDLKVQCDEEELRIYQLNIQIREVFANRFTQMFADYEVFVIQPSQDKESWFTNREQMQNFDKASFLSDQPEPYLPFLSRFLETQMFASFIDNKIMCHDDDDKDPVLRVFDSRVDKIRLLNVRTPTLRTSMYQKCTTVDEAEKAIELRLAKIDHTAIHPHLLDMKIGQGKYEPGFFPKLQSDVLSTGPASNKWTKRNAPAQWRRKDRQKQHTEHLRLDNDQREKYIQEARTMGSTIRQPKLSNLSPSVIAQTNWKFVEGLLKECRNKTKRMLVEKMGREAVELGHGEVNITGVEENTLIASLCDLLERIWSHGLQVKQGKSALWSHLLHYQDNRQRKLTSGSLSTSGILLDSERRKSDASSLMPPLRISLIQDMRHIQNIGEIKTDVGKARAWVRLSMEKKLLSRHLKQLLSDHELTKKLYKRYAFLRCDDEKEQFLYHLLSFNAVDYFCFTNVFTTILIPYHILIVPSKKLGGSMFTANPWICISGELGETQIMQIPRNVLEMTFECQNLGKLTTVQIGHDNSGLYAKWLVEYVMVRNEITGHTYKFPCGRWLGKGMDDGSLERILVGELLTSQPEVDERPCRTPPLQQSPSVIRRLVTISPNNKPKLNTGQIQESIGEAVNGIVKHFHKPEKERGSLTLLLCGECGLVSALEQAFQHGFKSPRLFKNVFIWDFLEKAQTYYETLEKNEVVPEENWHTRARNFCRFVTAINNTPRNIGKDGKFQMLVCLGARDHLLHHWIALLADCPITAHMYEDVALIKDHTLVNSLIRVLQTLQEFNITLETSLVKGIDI
# UniProt Q7L2E3: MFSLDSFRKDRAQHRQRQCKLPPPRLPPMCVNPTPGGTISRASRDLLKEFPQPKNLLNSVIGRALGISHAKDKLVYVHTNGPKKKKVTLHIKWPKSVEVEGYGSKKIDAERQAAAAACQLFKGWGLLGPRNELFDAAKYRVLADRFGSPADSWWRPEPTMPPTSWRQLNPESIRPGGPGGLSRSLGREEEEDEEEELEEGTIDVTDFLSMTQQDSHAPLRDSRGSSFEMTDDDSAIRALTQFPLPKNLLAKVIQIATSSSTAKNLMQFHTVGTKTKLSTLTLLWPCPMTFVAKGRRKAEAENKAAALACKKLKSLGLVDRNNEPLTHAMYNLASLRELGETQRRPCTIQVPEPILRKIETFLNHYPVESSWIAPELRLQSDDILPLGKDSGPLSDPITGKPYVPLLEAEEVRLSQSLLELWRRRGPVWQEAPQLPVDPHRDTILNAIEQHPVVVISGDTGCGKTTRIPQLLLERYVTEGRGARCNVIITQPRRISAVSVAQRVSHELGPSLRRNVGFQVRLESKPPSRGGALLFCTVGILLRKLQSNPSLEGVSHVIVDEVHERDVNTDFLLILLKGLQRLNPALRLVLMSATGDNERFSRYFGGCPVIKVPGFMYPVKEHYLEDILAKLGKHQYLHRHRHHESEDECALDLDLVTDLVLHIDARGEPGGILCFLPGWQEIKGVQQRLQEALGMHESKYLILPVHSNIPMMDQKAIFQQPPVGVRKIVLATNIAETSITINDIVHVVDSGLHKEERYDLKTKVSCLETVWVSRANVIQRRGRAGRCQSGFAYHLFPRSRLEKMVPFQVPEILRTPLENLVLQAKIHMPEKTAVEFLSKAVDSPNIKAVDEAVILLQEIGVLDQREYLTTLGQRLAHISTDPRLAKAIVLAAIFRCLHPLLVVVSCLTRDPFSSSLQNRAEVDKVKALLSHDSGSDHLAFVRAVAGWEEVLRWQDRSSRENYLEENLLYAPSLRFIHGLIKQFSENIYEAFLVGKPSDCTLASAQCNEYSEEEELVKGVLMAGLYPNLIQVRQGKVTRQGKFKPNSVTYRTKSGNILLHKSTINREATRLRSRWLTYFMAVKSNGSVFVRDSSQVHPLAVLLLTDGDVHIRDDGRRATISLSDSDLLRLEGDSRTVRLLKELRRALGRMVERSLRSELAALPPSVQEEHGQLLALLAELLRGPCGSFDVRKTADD
# UniProt Q8NDZ4: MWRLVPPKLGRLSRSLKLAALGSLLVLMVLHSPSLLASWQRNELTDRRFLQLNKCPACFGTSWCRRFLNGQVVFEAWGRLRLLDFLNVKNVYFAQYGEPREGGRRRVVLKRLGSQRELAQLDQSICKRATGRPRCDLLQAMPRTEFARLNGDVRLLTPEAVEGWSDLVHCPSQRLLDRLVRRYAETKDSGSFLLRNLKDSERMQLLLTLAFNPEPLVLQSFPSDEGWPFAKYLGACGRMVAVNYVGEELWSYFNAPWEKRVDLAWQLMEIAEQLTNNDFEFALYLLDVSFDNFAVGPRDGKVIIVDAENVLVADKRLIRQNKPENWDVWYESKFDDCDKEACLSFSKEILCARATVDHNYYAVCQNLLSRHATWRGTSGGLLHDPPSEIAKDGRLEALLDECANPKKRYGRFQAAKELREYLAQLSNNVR
# UniProt O75165, whole entry, looked up: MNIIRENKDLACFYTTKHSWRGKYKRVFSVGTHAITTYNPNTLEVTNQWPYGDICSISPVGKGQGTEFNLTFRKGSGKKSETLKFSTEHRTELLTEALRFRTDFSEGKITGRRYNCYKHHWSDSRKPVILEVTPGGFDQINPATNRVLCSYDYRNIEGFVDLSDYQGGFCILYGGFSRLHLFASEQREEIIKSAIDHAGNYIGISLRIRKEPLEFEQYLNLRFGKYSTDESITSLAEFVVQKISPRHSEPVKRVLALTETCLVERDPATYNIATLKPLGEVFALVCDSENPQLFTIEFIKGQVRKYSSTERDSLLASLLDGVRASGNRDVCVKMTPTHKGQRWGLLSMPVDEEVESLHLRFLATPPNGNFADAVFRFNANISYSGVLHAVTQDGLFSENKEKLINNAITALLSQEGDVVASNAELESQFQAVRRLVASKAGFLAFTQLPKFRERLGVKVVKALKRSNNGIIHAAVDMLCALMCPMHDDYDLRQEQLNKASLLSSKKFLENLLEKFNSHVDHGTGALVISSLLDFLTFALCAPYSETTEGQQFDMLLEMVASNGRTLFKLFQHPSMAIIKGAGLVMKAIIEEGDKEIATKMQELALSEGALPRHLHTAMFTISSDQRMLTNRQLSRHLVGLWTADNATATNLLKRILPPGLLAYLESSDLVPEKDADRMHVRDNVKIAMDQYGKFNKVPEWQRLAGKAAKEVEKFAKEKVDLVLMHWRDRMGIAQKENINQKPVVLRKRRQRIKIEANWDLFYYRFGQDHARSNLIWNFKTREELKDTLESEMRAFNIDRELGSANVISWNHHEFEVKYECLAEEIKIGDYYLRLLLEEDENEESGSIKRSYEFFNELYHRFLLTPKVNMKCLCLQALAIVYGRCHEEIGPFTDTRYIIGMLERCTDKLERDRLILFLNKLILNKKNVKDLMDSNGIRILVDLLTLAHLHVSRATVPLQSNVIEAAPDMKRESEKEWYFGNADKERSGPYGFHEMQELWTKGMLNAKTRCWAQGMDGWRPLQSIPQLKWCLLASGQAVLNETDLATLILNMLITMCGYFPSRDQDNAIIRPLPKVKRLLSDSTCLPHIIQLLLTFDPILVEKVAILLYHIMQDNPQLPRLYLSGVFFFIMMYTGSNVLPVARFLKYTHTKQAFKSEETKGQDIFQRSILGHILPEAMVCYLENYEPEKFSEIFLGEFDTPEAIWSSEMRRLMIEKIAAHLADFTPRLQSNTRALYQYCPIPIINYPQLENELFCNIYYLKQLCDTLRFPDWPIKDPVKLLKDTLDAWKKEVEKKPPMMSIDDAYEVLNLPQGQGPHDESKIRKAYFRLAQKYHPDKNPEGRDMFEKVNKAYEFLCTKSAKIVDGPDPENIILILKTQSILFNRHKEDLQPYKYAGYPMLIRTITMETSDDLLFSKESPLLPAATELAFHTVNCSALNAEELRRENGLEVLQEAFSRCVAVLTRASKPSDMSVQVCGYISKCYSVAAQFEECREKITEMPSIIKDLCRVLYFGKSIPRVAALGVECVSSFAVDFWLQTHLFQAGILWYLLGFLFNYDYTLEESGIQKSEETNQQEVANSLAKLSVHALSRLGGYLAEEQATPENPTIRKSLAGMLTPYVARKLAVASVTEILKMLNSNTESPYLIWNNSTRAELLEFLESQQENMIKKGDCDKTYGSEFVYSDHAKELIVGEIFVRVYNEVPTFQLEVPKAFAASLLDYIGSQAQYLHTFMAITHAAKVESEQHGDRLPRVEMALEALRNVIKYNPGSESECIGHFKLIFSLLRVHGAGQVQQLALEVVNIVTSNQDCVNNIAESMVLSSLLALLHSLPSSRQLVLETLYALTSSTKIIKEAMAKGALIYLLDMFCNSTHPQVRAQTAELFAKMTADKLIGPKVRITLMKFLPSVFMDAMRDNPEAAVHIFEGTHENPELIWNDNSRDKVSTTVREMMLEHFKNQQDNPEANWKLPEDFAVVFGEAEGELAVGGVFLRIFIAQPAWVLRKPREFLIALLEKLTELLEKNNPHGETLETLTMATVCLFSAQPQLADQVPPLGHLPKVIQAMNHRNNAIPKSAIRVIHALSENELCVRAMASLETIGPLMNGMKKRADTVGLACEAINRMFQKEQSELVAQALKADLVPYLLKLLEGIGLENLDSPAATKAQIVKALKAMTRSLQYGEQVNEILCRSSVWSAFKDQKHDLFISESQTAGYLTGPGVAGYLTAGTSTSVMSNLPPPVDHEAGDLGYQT
# UniProt Q9H3H5: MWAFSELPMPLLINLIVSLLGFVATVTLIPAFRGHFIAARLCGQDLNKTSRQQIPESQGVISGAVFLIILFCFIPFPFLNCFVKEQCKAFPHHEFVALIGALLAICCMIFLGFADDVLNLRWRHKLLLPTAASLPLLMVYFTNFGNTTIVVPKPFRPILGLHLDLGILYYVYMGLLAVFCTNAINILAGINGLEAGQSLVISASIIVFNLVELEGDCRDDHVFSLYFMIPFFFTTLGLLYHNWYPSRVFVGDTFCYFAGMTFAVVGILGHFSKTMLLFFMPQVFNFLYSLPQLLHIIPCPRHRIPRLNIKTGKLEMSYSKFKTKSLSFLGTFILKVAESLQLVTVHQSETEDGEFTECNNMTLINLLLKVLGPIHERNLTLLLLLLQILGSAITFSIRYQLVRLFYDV
# This is one part of the list. The data scatter; read single values as rough.
# Compound: ClCC(=O)N[C@@H]1CCCc2ccccc12
# Test: log2 mean competition ratio of IA-DTB cysteine labelling (DMSO/compound) (log2 ratio); higher = stronger cysteine engagement by compound
# Conditions: treatment time: 4 h, cell line lysate: HEK293T
# Experimental: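 IA-DTB competitive cysteine chemoproteomics in HEK293T RIPA lysate. Lysates were treated with compound 29 or 30 at 50 or 200 µM for 4 h, then IA-DTB (500 µM, 1 h), trypsin-digested, NeutrAvidin-enriched and analysed by diaPASEF. Competition ratio = intensity DMSO / intensity compound (n=4 treated, n=64 DMSO); binding: mean log2 CR ≥ 1 and p ≤ 0.05 plus QC filters. Target is the cysteine site.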
target,measurement,setting,value
DGKD C121,log2 mean competition ratio,50 µM,-0.128
same,log2 mean competition ratio,200 µM,0.0724
DGCR8 C91 (UniProt Q8WYQ5),log2 mean competition ratio,50 µM,-0.00641
same,log2 mean competition ratio,200 µM,0.363
DNAAF5 C841 (UniProt Q86Y56),log2 mean competition ratio,50 µM,-0.215
same,log2 mean competition ratio,200 µM,-0.206
DENND5A C1077 (UniProt Q6IQ26),log2 mean competition ratio,50 µM,-0.308
same,log2 mean competition ratio,200 µM,0.254
DHX30 C673 (UniProt Q7L2E3),log2 mean competition ratio,50 µM,0.352
DOCK6 C1243 (UniProt Q96HP0),log2 mean competition ratio,50 µM,0.00286
same,log2 mean competition ratio,200 µM,-0.116
DIPK2A C126 (UniProt Q8NDZ4),log2 mean competition ratio,50 µM,-0.0799
same,log2 mean competition ratio,200 µM,0.357
DEPDC1B C59 (UniProt Q8WUY9),log2 mean competition ratio,50 µM,0.134
same,log2 mean competition ratio,200 µM,-0.22
DHX36 C135 (UniProt Q9H2U1),log2 mean competition ratio,50 µM,-0.00739
same,log2 mean competition ratio,200 µM,-0.103
DMXL1 C2618 (UniProt Q9Y485),log2 mean competition ratio,50 µM,0.0144
same,log2 mean competition ratio,200 µM,0.114
DHX40 C417 (UniProt Q8IX18),log2 mean competition ratio,50 µM,0.0591
same,log2 mean competition ratio,200 µM,0.00842
DIAPH2 C159 (UniProt O60879),log2 mean competition ratio,50 µM,0.00269
same,log2 mean competition ratio,200 µM,-0.0269
DNMT1 C1485 (UniProt P26358),log2 mean competition ratio,50 µM,-0.146
same,log2 mean competition ratio,200 µM,0.104
DGKH C139 (UniProt Q86XP1),log2 mean competition ratio,200 µM,-0.0326
DHX30 C606 (UniProt Q7L2E3),log2 mean competition ratio,50 µM,0.0156
same,log2 mean competition ratio,200 µM,-0.0632
DIAPH2 C182 (UniProt O60879),log2 mean competition ratio,50 µM,0.129
same,log2 mean competition ratio,200 µM,0.15
DIS3 C533 (UniProt Q9Y2L1),log2 mean competition ratio,50 µM,-0.138
same,log2 mean competition ratio,200 µM,-0.0998
DNAJC21 C3 (UniProt Q5F1R6),log2 mean competition ratio,50 µM,0.484
same,log2 mean competition ratio,200 µM,-0.0326
DNAJC13 C12 (UniProt O75165),log2 mean competition ratio,50 µM,-0.0624
same,log2 mean competition ratio,200 µM,-0.522
DPAGT1 C42 (UniProt Q9H3H5),log2 mean competition ratio,50 µM,-0.173
same,log2 mean competition ratio,200 µM,-0.257
DLGAP4 C736 (UniProt Q9Y2H0),log2 mean competition ratio,50 µM,0.0221
same,log2 mean competition ratio,200 µM,0.376
DNAJB4 C7 (UniProt Q9UDY4),log2 mean competition ratio,50 µM,0.0625
same,log2 mean competition ratio,200 µM,0.286

# Not a retest: an excerpt of the list.
target,measurement,setting,value
DGCR8 C91 (UniProt Q8WYQ5),log2 mean competition ratio,50 µM,-0.00641
same,log2 mean competition ratio,200 µM,0.363
DNAAF5 C841 (UniProt Q86Y56),log2 mean competition ratio,50 µM,-0.215
same,log2 mean competition ratio,200 µM,-0.206
DENND5A C1077 (UniProt Q6IQ26),log2 mean competition ratio,50 µM,-0.308
same,log2 mean competition ratio,200 µM,0.254
DHX30 C673 (UniProt Q7L2E3),log2 mean competition ratio,50 µM,0.352
DOCK6 C1243 (UniProt Q96HP0),log2 mean competition ratio,50 µM,0.00286
same,log2 mean competition ratio,200 µM,-0.116
DIPK2A C126 (UniProt Q8NDZ4),log2 mean competition ratio,50 µM,-0.0799
